# Data source: PubChem BioAssay AID652243 (Drosophila RNAi Screening Center, 2013)
# Test: 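Fly regulators of androgen-dependent reporter output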 (primary screen)
# System: Drosophila S2R+ cells
# Reagents: long dsRNA against Drosophila genes
# Duration: 72 h (48 h, then 24 h hormone)
# Challenge: synthetic androgen R1881 at 10 nM for 24 h
# Measurement: 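Firefly light from an androgen-responsive reporter and Renilla control light per well, raw and unnormalised, for each of two replicates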
# Reading the numbers: firefly reporter light: higher = more light from androgen-responsive reporter; Renilla control light: higher = more constitutive control signal (cell number, transfection)
# Hit rule: 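Hit when the log firefly-to-Renilla ratio dropped or increased by a fixed fold versus the mean of GFP or LacZ controls across duplicate plates; lowering cut given as 1.5 and as 3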
# Calls: active = hit: reporter lowered or raised; inactive = no hit
# The deposit covers about 24,000 reagents; shown is an unselected part of those that have a named target and a result. Of all reagents, 246 (1%) are marked active. 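Plates not normalised; calls are printed but the firefly/Renilla ratio behind them is not deposited; fold cut for lowering reported inconsistently.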 Raw values vary from plate to plate and are shown uncorrected. Reagents against one gene are numbered here. A plus sign joins genes that one reagent is predicted to hit. Not stated in the record: the amount of reagent.
Gene,reagent,"firefly reporter light, replicate 1","firefly reporter light, replicate 2","Renilla control light, replicate 1","Renilla control light, replicate 2",outcome
ZnT33D (Zinc transporter 33D),1,1.52e5,1.99e5,1.14e6,1.45e6,inactive
CG33770,1,3.07e5,2.35e5,2.37e6,2.03e6,inactive
Vti1a (Vesicle transport through interaction with t-SNAREs 1a),1,1.03e6,9.08e5,1.23e6,1.02e6,inactive
Pink1 (PTEN-induced putative kinase 1),1,77295,58297,7.93e5,5.19e5,inactive
Pink1 (PTEN-induced putative kinase 1),2,,,,,inactive
Pink1 (PTEN-induced putative kinase 1),3,,,,,inactive
CG12016 + Dpm2,1,70122,1.56e5,4.33e5,5.44e5,inactive
CG12016 + Dpm2,2,9.77e5,1.22e6,1.08e6,1.03e6,inactive
CSN6 (COP9 signalosome subunit 6),1,2.04e5,1.78e5,1.99e6,1.61e6,inactive
CG12868,1,50353,64104,6.82e5,6.82e5,inactive
CG12868,2,5.59e5,4.59e5,6.11e5,7.15e5,inactive
CycK (Cyclin K),1,6.00e5,5.80e5,1.74e6,2.11e6,inactive
CycK (Cyclin K),2,,,,,inactive
CG30394,1,2.70e5,2.85e5,1.88e6,1.80e6,inactive
CG30394,2,3.02e5,3.37e5,1.12e6,1.38e6,inactive
arg (arginase),1,1.02e5,78990,6.09e5,4.70e5,inactive
arg (arginase),2,5.48e5,8.72e5,1.08e6,1.08e6,inactive
beta4GalT7 (beta-4-galactosyltransferase 7),1,89880,1.37e5,1.40e6,1.59e6,inactive
Rad9,1,60748,42955,6.76e5,4.51e5,inactive
RpS5b (Ribosomal protein S5b),1,2.07e5,2.08e5,1.66e6,2.00e6,inactive
ND-13B (NADH dehydrogenase (ubiquinone) 13 kDa B subunit),1,2.73e5,1.81e5,2.18e6,1.43e6,inactive
ND-13B (NADH dehydrogenase (ubiquinone) 13 kDa B subunit),2,3.74e5,3.03e5,1.13e6,1.31e6,inactive
CG14591,1,3.63e5,3.87e5,2.68e6,2.76e6,inactive
CG11400,1,72325,79543,9.67e5,9.67e5,inactive
PDCD-5 (Programmed Cell Death 5),1,3.58e5,2.58e5,3.54e6,2.00e6,inactive
Vav (Vav guanine nucleotide exchange factor),1,1.27e5,81879,5.28e5,3.45e5,inactive
Vav (Vav guanine nucleotide exchange factor),2,3.60e5,3.28e5,1.54e6,6.98e5,inactive
janA (janus A),1,2.21e5,1.86e5,1.94e6,2.94e6,inactive
janA (janus A),2,5.75e5,8.28e5,5.83e5,7.05e5,inactive
xmas-1 (retired record),1,2.88e5,3.19e5,3.02e6,1.74e6,inactive
xmas-1 (retired record),2,2.88e5,4.33e5,8.36e5,5.60e5,inactive
CG31272,1,67151,1.02e5,1.60e6,1.66e6,inactive
CG31145,1,1.50e5,1.58e5,2.95e6,3.12e6,inactive
CG31145,2,1.26e5,1.83e5,2.28e6,2.28e6,inactive
CG31145,3,2.85e5,2.47e5,6.76e5,4.36e5,inactive
krimp (krimper),1,4.12e5,2.93e5,5.75e5,4.49e5,inactive
Rilpl (Rab interacting lysosomal protein like),1,1.31e5,1.22e5,1.19e6,8.87e5,inactive
CG13226,1,2.53e5,3.08e5,1.30e6,1.17e6,inactive
CG34292,1,6.74e5,3.77e5,2.14e6,1.13e6,inactive
CG30103,1,1.09e5,98574,1.64e6,1.64e6,inactive
CG30103,2,7.54e5,4.83e5,1.50e6,1.59e6,inactive

A portion taken from the entries so far, as a working copy:
Gene,reagent,"firefly reporter light, replicate 1","firefly reporter light, replicate 2","Renilla control light, replicate 1","Renilla control light, replicate 2",outcome
CG11400,1,72325,79543,9.67e5,9.67e5,inactive
PDCD-5 (Programmed Cell Death 5),1,3.58e5,2.58e5,3.54e6,2.00e6,inactive
Vav (Vav guanine nucleotide exchange factor),1,1.27e5,81879,5.28e5,3.45e5,inactive
Vav (Vav guanine nucleotide exchange factor),2,3.60e5,3.28e5,1.54e6,6.98e5,inactive
janA (janus A),1,2.21e5,1.86e5,1.94e6,2.94e6,inactive
janA (janus A),2,5.75e5,8.28e5,5.83e5,7.05e5,inactive
xmas-1 (retired record),1,2.88e5,3.19e5,3.02e6,1.74e6,inactive
